Reference: patent US7175850B2, “Formulation for topical non-invasive application in vivo” (Idea AG, priority 1998, dated 2007)
At least one compound was matched to its structure with a doubt left.

Test system: arachidonic acid-induced oedema
Assay: Suppression of arachidonic acid-induced murine ear edema by topically administered corticosteroids
Format: in vivo, mice
Settings: murine ear model; FIG. 2

C[C@@H]1C[C@H]2[C@@H]3CCC4=CC(=O)C=C[C@]4(C)[C@@]3(F)[C@@H](O)C[C@]2(C)[C@@]1(O)C(=O)CO [Dexamethasone, dexamethasone]
Biological effect compared with hydrocortisone when tested locally on the challenged skin: much stronger biological effect
